Measurements published in the supplement of paper PMC10849652.
The list shows a part of the results.

Tests used:
Assay in all cases: log2 fold change, soluble protein after heating vs DMSO (PISA); higher = thermal stabilisation; K562 lysate, 10 uM; active = over 0.2 and 3.5 SD of the protein, either way, in both replicates (recomputed)
nilotinib = compound: Cc1cn(-c2cc(NC(=O)c3ccc(C)c(Nc4nccc(-c5cccnc5)n4)c3)cc(C(F)(F)F)c2)cn1 [nilotinib]
In short: (§1)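 Log-two fold change in thermal stability relative to solvent controls is reported from duplicates. For each sample, crude K562 extract from dounce-homogenised pellets in PBS pH 7.4 with 1 mM MgCl2, at 1 mg/mL protein, was treated with 10 μM compound for 30 min. Aliquots heated for 3 min across 48°C-58°C were pooled, brought to 0.5% NP-40 at 4°C and cleared at 21,000xg for 90 min. The supernatant was quantified by TMTpro 16plex LC-MS/MS with channel sums equalised.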

[1] = compound: Cc1nc(Nc2n[nH]c3c2CN(C(=O)N[C@H](CN(C)C)c2ccccc2)C3(C)C)c2sccc2n1
In short: as §1

dasatinib = compound: Cc1nc(Nc2ncc(C(=O)Nc3c(C)cccc3Cl)s2)cc(N2CCN(CCO)CC2)n1 [dasatinib]
In short: as §1

[2] = compound: Cc1ncc(-c2ccnc(Nc3ccc(S(C)(=O)=O)cc3)n2)n1C(C)C
In short: as §1

[3] = compound: Cn1cc(-c2ccc3c(c2)CCN3C(=O)Cc2cccc(C(F)(F)F)c2)c2c(N)ncnc21
In short: as §1

quisinostat = compound: Cn1cc(CNCC2CCN(c3ncc(C(=O)NO)cn3)CC2)c2ccccc21 [quisinostat]
In short: as §1

tipifarnib = compound: Cn1cncc1[C@@](N)(c1ccc(Cl)cc1)c1ccc2c(c1)c(-c1cccc(Cl)c1)cc(=O)n2C [tipifarnib]
In short: as §1

[4] = compound: NC(=O)Nc1cc(-c2cccc(F)c2)sc1C(=O)N[C@H]1CCCNC1
In short: as §1

[5] = compound: NC(=O)c1cnc(N[C@@H]2CCCC[C@@H]2N)nc1Nc1cccc(-n2nccn2)c1
In short: as §1

[6] = compound: O=C1NC(=O)C(c2cnc3ccccn23)=C1c1cn2c3c(cc(F)cc13)CN(C(=O)N1CCCCC1)CC2
In short: as §1

[7] = compound: NC1(c2ccc(-c3nc4ccn5c(=O)[nH]nc5c4cc3-c3ccccc3)cc2)CCC1
In short: as §1

[8] = compound: NCC(=O)Nc1ccc(-n2nc(C(F)(F)F)cc2-c2ccc3c(ccc4ccccc43)c2)cc1
In short: as §1

vorinostat = compound: O=C(CCCCCCC(=O)Nc1ccccc1)NO [vorinostat]
In short: as §1

silmitasertib = compound: O=C(O)c1ccc2c(c1)nc(Nc1cccc(Cl)c1)c1ccncc12 [silmitasertib]
In short: as §1

entospletinib = compound: c1cn2cc(-c3ccc4cn[nH]c4c3)nc(Nc3ccc(N4CCOCC4)cc3)c2n1 [entospletinib]
In short: as §1

Measured: log2 fold change

PRG4 (UniProt Q92954)
inactive: nilotinib -0.092 | [1] 0.196 | dasatinib -0.028 | [2] 0.196 | [3] 0.024 | quisinostat -0.285 | tipifarnib 0.17 | [4] 0.057 | [5] -0.09 | [6] -0.145

PPIF (UniProt P30405)
inactive: nilotinib -0.021 | [1] 0.003 | dasatinib 0.023 | [2] 0.011 | [3] -0.03 | quisinostat -0.106 | tipifarnib -0.002 | [4] 0.005 | [5] 0.013 | [7] -0.069 | [8] 0.01 | vorinostat 0.056 | silmitasertib -0.016 | [6] 0.017 | entospletinib -0.013

PRIMPOL (UniProt Q96LW4)
inactive: nilotinib 0.112 | [1] -0.089 | dasatinib 0.034 | [2] -0.15 | [3] -0.037 | quisinostat -0.039 | tipifarnib 0.17 | [4] 0 | [7] -0.126 | [8] -0.03 | silmitasertib 0.034 | [6] -0.028 | entospletinib 0.029
active: vorinostat -0.337

PRMT8 (UniProt Q9NR22)
inactive: nilotinib 0.007 | [1] -0.021 | dasatinib -0.039 | [2] -0.01 | [3] -0.023 | quisinostat -0.057 | tipifarnib 0.036 | [4] 0.034 | [5] -0.023 | [7] -0.056 | [8] 0.067 | vorinostat -0.157 | silmitasertib -0.018 | [6] -0.017 | entospletinib 0.002

PRKAG1 (UniProt P54619)
inactive: nilotinib -0.055 | [1] 0.124 | dasatinib -0.004 | [2] 0.022 | [3] 0.005 | quisinostat -0.088 | tipifarnib -0.069 | [4] 0.152 | [5] 0.061 | [7] 0.033 | [8] -0.001 | vorinostat -0.062 | silmitasertib 0.065 | [6] 0.006 | entospletinib 0.011

PRC1 (UniProt O43663)
active: vorinostat -0.387
inactive: nilotinib 0.013 | [1] -0.008 | dasatinib -0.012 | [2] -0.007 | [3] 0.05 | quisinostat -0.035 | tipifarnib -0.011 | [4] 0.009 | [5] -0.002 | [7] -0.044 | [8] 0.012 | silmitasertib 0.046 | [6] -0.02 | entospletinib 0.023

PRKRIP1 (UniProt Q9H875)
inactive: nilotinib 0 | [1] -0.031 | dasatinib 0.05 | [2] -0.006 | [3] 0 | quisinostat 0.016 | tipifarnib 0.017 | [4] -0.015 | [5] -0.012 | [7] -0.005 | [8] 0.028 | vorinostat 0.095 | silmitasertib -0.027 | [6] -0.046 | entospletinib -0.053

PPIL2 (UniProt Q13356)
active: vorinostat -0.32
inactive: nilotinib -0.032 | [1] 0.014 | dasatinib 0.064 | [2] 0.008 | [3] -0.004 | quisinostat -0.063 | tipifarnib -0.038 | [4] 0.018 | [5] -0.063 | [7] 0.011 | [8] 0.015 | silmitasertib 0.019 | [6] -0.009 | entospletinib 0.014

PRKAR2A (UniProt P13861)
inactive: nilotinib -0.036 | [1] -0.051 | dasatinib -0.065 | [2] -0.016 | [3] 0.017 | quisinostat 0.02 | tipifarnib 0.025 | [4] -0.198 | [5] -0.037 | [7] -0.011 | [8] 0.005 | vorinostat -0.037 | silmitasertib -0.008 | [6] -0.06 | entospletinib -0.035

PPP1R21 (UniProt Q6ZMI0)
inactive: nilotinib 0.032 | [1] 0.005 | dasatinib -0.06 | [2] -0.022 | [3] 0.002 | quisinostat -0.104 | tipifarnib 0.017 | [4] 0.054 | [5] 0.008 | [7] 0.052 | [8] -0.034 | vorinostat -0.051 | silmitasertib 0.002 | [6] 0.031 | entospletinib 0.032

PRNP (UniProt P04156)
inactive: nilotinib -0.033 | [1] 0.053 | dasatinib 0.024 | [2] 0.022 | [3] 0.021 | quisinostat -0.019 | tipifarnib -0.027 | [4] -0.09 | [5] -0.125 | [7] 0.094 | vorinostat -0.052 | silmitasertib -0.018 | [6] -0.007

PPP2R3C (UniProt Q969Q6)
inactive: nilotinib -0.139 | [1] 0.057 | dasatinib -0.061 | [2] -0.13 | [3] -0.009 | tipifarnib 0.057 | [5] 0.038 | [7] 0.062 | [8] -0.019 | vorinostat -0.362 | silmitasertib 0.086 | entospletinib 0.074
